Measurements published in the supplement of paper PMC10849652.
Some of the results follow.

Chains of the proteins cited; added tags and fusions are not shown. Lines headed by an entry give the natural chain unless they say otherwise; changes in a name come on top.
UniProt Q03111: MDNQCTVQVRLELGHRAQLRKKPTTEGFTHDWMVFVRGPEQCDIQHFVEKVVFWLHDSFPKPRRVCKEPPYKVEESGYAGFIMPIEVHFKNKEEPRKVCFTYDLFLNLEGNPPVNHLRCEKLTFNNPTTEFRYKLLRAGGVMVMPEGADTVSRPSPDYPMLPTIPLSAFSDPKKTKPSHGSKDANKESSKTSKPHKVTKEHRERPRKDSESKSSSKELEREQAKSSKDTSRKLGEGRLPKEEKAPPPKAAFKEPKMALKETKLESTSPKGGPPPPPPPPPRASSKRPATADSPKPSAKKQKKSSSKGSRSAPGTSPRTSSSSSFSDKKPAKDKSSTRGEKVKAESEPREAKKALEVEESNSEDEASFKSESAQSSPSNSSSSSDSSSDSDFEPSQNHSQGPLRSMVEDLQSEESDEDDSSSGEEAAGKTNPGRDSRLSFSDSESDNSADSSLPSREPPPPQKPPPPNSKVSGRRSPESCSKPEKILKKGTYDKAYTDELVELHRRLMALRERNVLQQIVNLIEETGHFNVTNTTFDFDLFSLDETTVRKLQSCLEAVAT
UniProt O96007: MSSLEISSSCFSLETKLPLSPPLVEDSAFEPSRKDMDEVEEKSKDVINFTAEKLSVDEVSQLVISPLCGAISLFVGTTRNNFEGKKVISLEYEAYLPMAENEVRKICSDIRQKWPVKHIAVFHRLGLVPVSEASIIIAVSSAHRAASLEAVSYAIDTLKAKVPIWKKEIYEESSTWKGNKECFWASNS
UniProt Q567V2: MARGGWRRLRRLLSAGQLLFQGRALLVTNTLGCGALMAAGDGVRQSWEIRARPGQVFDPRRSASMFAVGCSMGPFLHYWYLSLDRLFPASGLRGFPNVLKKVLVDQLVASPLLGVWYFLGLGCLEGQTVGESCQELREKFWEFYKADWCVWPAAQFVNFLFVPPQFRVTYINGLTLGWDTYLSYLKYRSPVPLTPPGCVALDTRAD
UniProt Q9BV20: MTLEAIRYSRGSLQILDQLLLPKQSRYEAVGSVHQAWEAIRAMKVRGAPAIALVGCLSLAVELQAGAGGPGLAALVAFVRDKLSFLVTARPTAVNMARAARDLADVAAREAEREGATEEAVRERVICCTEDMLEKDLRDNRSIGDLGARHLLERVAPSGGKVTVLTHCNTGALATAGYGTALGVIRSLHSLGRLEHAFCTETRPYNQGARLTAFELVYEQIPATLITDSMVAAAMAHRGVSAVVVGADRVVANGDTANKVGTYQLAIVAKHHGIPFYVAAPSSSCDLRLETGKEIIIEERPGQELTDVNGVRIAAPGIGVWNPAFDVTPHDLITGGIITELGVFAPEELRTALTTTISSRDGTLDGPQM
UniProt P46013: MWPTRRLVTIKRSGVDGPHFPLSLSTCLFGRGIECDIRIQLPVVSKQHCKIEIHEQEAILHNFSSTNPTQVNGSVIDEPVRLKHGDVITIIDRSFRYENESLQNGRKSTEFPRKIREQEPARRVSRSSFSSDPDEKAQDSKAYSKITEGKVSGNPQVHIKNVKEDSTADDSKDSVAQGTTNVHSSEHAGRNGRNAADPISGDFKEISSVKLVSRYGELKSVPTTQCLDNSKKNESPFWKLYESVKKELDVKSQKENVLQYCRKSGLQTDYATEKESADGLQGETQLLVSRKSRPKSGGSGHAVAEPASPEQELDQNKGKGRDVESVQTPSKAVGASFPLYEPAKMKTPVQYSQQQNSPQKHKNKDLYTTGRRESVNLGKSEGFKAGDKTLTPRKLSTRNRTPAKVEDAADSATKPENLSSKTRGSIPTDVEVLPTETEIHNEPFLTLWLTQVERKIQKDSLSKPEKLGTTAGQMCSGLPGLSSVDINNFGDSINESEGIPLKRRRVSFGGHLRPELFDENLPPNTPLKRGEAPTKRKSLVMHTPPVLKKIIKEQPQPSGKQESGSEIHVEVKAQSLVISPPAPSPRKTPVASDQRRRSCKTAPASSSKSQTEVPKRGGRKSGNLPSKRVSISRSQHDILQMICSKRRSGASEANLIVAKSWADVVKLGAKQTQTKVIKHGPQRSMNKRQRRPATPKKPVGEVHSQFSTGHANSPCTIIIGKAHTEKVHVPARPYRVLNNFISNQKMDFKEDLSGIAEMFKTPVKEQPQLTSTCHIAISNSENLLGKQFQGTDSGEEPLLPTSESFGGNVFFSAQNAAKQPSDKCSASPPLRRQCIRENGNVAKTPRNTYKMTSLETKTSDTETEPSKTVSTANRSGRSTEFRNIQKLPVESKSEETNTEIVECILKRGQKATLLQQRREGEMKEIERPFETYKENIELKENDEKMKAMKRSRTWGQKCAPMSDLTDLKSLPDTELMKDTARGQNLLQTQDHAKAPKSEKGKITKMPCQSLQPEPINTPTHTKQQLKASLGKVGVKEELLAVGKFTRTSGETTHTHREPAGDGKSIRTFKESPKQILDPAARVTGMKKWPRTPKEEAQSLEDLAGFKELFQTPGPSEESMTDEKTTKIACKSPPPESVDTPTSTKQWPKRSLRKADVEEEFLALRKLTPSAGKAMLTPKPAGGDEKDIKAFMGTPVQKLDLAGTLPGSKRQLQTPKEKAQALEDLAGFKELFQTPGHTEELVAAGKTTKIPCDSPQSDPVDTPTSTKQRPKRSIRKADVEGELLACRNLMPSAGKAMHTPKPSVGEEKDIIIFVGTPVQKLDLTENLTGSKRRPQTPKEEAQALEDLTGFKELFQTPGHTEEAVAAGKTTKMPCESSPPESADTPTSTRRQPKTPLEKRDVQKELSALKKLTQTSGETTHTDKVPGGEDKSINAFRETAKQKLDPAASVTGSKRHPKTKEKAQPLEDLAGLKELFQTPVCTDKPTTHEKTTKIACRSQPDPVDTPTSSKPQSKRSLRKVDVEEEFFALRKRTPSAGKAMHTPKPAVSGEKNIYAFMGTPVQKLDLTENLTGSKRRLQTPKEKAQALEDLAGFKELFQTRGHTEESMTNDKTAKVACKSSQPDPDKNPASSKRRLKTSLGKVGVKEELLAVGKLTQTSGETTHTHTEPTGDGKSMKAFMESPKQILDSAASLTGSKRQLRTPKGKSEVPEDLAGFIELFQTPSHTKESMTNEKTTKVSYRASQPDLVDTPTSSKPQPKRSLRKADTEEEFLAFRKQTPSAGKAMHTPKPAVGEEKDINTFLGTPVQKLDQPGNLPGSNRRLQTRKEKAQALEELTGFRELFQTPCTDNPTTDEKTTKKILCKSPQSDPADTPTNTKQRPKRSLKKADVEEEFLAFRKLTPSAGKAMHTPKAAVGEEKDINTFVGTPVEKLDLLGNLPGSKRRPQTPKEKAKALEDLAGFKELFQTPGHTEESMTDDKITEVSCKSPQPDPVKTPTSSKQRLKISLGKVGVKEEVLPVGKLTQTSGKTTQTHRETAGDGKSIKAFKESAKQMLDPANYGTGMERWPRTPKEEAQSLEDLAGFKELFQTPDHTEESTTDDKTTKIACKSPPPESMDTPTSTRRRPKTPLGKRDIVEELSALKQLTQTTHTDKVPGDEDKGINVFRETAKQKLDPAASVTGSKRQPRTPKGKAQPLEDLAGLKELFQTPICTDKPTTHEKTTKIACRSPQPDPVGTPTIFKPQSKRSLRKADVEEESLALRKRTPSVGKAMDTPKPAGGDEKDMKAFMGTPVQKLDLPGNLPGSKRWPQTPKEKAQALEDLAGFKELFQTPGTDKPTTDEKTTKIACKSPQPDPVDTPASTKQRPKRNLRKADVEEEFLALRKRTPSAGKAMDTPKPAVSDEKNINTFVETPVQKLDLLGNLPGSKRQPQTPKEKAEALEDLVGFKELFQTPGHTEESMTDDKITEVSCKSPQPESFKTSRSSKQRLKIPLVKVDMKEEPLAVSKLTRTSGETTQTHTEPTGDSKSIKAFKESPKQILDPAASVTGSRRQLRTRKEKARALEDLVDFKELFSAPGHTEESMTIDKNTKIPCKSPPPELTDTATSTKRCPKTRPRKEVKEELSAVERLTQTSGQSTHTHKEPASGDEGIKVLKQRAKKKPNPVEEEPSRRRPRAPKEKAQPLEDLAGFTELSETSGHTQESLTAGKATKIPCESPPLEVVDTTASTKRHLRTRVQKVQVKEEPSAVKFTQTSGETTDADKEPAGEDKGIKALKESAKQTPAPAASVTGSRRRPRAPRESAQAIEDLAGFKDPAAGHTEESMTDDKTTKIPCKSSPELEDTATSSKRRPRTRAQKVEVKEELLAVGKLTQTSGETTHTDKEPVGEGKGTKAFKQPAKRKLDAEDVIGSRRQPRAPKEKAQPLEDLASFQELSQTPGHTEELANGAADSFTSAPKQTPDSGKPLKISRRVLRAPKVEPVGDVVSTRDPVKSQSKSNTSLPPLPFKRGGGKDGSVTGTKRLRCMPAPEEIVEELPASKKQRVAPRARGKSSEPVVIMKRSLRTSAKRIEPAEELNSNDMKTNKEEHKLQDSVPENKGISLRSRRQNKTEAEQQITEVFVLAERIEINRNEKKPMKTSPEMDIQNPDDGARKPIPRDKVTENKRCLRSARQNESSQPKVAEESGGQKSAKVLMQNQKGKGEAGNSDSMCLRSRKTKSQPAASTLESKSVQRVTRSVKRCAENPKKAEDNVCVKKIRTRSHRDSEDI
UniProt P25325: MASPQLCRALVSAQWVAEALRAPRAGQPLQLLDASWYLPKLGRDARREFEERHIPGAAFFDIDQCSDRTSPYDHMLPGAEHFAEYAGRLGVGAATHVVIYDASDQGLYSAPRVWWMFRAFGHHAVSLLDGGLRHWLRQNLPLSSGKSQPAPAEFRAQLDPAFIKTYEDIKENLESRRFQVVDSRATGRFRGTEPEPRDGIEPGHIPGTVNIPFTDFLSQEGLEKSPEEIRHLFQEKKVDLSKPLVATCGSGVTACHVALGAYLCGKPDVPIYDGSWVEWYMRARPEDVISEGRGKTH
UniProt Q9H8M7: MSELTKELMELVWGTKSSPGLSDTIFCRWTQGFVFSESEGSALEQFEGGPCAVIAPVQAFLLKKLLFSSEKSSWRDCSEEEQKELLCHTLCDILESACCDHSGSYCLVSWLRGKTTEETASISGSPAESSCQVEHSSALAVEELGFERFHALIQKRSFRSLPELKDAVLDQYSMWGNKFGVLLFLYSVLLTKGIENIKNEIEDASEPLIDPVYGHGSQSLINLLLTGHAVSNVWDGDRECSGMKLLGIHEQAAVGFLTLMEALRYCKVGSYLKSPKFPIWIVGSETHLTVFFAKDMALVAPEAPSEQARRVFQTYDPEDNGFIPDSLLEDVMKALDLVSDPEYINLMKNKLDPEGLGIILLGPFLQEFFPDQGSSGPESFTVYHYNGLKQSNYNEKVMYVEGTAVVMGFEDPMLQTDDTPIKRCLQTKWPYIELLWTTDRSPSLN
UniProt P34949: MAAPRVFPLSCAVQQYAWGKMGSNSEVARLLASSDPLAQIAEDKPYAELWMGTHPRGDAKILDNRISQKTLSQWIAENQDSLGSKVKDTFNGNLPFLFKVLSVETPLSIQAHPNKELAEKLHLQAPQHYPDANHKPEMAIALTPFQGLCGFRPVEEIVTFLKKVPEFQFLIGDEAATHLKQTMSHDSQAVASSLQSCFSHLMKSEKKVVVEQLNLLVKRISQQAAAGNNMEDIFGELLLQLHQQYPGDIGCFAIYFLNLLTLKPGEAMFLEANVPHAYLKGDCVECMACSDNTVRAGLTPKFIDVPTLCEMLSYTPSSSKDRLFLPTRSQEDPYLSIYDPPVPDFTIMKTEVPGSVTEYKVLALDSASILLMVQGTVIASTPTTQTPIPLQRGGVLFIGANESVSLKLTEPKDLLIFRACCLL
UniProt Q13724: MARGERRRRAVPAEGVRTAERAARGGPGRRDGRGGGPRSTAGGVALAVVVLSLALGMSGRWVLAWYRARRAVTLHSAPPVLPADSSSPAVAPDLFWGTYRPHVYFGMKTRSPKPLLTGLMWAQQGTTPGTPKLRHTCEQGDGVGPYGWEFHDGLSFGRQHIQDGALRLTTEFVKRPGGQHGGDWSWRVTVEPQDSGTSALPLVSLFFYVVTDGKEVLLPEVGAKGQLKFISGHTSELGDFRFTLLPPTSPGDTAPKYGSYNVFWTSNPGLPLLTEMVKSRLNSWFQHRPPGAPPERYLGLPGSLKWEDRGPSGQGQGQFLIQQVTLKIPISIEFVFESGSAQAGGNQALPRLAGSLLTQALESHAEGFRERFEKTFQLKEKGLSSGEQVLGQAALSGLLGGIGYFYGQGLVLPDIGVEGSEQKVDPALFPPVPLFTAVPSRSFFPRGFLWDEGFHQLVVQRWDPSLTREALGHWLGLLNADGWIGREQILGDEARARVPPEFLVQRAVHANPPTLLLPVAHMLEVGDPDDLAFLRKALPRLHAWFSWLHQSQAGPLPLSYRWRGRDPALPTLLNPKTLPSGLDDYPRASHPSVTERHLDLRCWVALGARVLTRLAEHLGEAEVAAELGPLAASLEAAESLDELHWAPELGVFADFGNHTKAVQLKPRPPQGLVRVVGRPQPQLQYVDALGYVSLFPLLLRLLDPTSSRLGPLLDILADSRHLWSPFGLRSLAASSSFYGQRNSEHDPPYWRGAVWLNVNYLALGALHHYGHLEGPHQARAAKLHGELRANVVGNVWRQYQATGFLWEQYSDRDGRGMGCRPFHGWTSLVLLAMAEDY

Key:
Experiment in all cases: log2 fold change, soluble protein after heating vs DMSO (PISA); higher = thermal stabilisation; K562 cells, 10 uM, 30 min; active = over 0.2 and 3.5 SD of the protein, either way, in both replicates (recomputed)
[1] = compound: NC(=O)Nc1cc(-c2cccc(F)c2)sc1C(=O)N[C@H]1CCCNC1
Method in brief: (§1)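 For each measurement, 10 μM compound was applied for 30 min to K562 cells at 2×10^6 cells/mL. Aliquots were heated for 3 min across 48°C-58°C, pooled, and extracted in PBS with 0.5% NP-40 at 4°C; the supernatant after 21,000xg for 90 min was soluble protein. This was quantified by TMTpro 16plex LC-MS/MS with channel sums equalised, and thermal stability was reported relative to control samples from duplicates, on a log2 fold-change scale.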

[2] = compound: NC(=O)c1cnc(N[C@@H]2CCCC[C@@H]2N)nc1Nc1cccc(-n2nccn2)c1
Method in brief: as §1

[3] = compound: NC1(c2ccc(-c3nc4ccn5c(=O)[nH]nc5c4cc3-c3ccccc3)cc2)CCC1
Method in brief: as §1

[4] = compound: NCC(=O)Nc1ccc(-n2nc(C(F)(F)F)cc2-c2ccc3c(ccc4ccccc43)c2)cc1
Method in brief: as §1

entinostat = compound: Nc1ccccc1NC(=O)c1ccc(CNC(=O)OCc2cccnc2)cc1 [entinostat]
Method in brief: as §1

vorinostat = compound: O=C(CCCCCCC(=O)Nc1ccccc1)NO [vorinostat]
Method in brief: as §1

citarinostat = compound: O=C(CCCCCCNC(=O)c1cnc(N(c2ccccc2)c2ccccc2Cl)nc1)NO [citarinostat]
Method in brief: as §1

silmitasertib = compound: O=C(O)c1ccc2c(c1)nc(Nc1cccc(Cl)c1)c1ccncc12 [silmitasertib]
Method in brief: as §1

[5] = compound: O=C1NC(=O)C(c2cnc3ccccn23)=C1c1cn2c3c(cc(F)cc13)CN(C(=O)N1CCCCC1)CC2
Method in brief: as §1

[6] = compound: c1cc(OCCN2CCCCC2)cc(-c2n[nH]c3ccc(-c4nnc[nH]4)cc23)c1
Method in brief: as §1

entospletinib = compound: c1cn2cc(-c3ccc4cn[nH]c4c3)nc(Nc3ccc(N4CCOCC4)cc3)c2n1 [entospletinib]
Method in brief: as §1

Measured: log2 fold change

MLLT1 (UniProt Q03111)
inactive: [1] 0.007 | [2] -0.032 | [3] -0.001 | [4] -0.332 | entinostat -0.032 | vorinostat 0.073 | citarinostat -0.014 | silmitasertib 0.051 | [5] 0.113 | [6] -0.067 | entospletinib 0.056

MOCS2 (UniProt O96007)
inactive: [1] 0.041 | [2] -0.049 | [3] 0.008 | [4] -0.03 | entinostat -0.011 | vorinostat 0.037 | citarinostat 0.05 | silmitasertib -0.01 | [5] -0.048 | [6] 0.01 | entospletinib 0.03

MINPP1 (UniProt Q9UNW1)
inactive: [1] -0.001 | [2] -0.021 | [3] -0.031 | [4] 0.063 | entinostat 0.002 | vorinostat -0.013 | citarinostat 0.092 | silmitasertib 0.032 | [5] -0.004 | [6] -0.003 | entospletinib -0.022

MRPL19 (UniProt P49406)
inactive: [1] 0.01 | [2] 0.119 | [3] -0.028 | [4] 0.072 | entinostat 0.046 | vorinostat 0.019 | citarinostat 0.025 | silmitasertib -0.039 | [5] -0.01 | [6] -0.037 | entospletinib 0.038

MRPL24 (UniProt Q96A35)
inactive: [1] -0.04 | [2] 0.038 | [3] 0.022 | [4] 0.188 | entinostat -0.027 | vorinostat 0.064 | citarinostat -0.055 | silmitasertib -0.049 | [5] -0.01 | [6] -0.069 | entospletinib 0.014

MRPL2 (UniProt Q5T653)
inactive: [1] -0.026 | [2] 0.077 | [3] -0.001 | [4] -0.006 | entinostat -0.036 | vorinostat 0.043 | citarinostat -0.001 | silmitasertib -0.048 | [5] -0.081 | [6] -0.046 | entospletinib 0.116

MPHOSPH6 (UniProt Q99547)
inactive: [1] 0.023 | [2] -0.011 | [3] 0.046 | [4] -0.064 | entinostat -0.001 | vorinostat 0.059 | citarinostat -0.02 | silmitasertib 0.137 | [5] 0.062 | [6] -0.137 | entospletinib 0.019

MRPL27 (UniProt Q9P0M9)
inactive: [1] 0.003 | [2] 0.202 | [3] 0.057 | [4] 0.142 | entinostat 0.029 | vorinostat -0.065 | citarinostat -0.022 | silmitasertib -0.019 | [5] 0.206 | [6] -0.104 | entospletinib 0.067

MPG (UniProt P29372)
inactive: [1] -0.01 | [2] 0.025 | [3] 0.025 | [4] 0.003 | entinostat -0.034 | vorinostat 0.05 | citarinostat -0.045 | silmitasertib -0.014 | [5] 0.026 | [6] -0.06 | entospletinib -0.042

MRPL54 (UniProt Q6P161)
inactive: [1] 0 | [2] 0.005 | [3] -0.001 | [4] 0.053 | entinostat -0.08 | vorinostat -0.062 | citarinostat -0.075 | silmitasertib 0.019 | [5] 0.152 | [6] -0.102 | entospletinib 0.134

MPV17L2 (UniProt Q567V2)
inactive: [1] 0.007 | [2] 0.069 | [3] 0.078 | [4] -0.009 | entinostat 0.019 | vorinostat -0.027 | citarinostat 0.007 | silmitasertib -0.022 | [5] 0.103 | [6] -0.086 | entospletinib 0.042

MRPL37 (UniProt Q9BZE1)
inactive: [1] -0.088 | [2] 0.041 | [3] -0.071 | [4] 0.033 | entinostat 0.047 | vorinostat 0.005 | citarinostat -0.016 | silmitasertib -0.025 | [5] 0.028 | [6] -0.077 | entospletinib 0.11

MRI1 (UniProt Q9BV20)
inactive: [1] -0.018 | [2] -0.024 | [3] -0.021 | [4] -0.062 | entinostat 0 | vorinostat -0.045 | citarinostat 0.012 | silmitasertib 0.032 | [5] -0.033 | [6] 0.006 | entospletinib 0.039

Quoted at random: 2 records from the list
MLLT1 (UniProt Q03111)
inactive: [1] 0.007 | [2] -0.032 | [3] -0.001 | [4] -0.332 | entinostat -0.032 | vorinostat 0.073 | citarinostat -0.014 | silmitasertib 0.051 | [5] 0.113 | [6] -0.067 | entospletinib 0.056

MPG (UniProt P29372)
inactive: [1] -0.01 | [2] 0.025 | [3] 0.025 | [4] 0.003 | entinostat -0.034 | vorinostat 0.05 | citarinostat -0.045 | silmitasertib -0.014 | [5] 0.026 | [6] -0.06 | entospletinib -0.042

(further entries)

MKI67 (UniProt P46013)
inactive: [1] 0.085 | [2] -0.011 | [3] 0.005 | [4] 0.072 | entinostat -0.043 | vorinostat 0.038 | citarinostat 0.002 | silmitasertib -0.002 | [5] 0.063 | [6] -0.031 | entospletinib 0.006

MRPL55 isoform 2 (UniProt Q7Z7F7)
inactive: [1] -0.057 | [2] 0.01 | [3] -0.049 | [4] 0.042 | entinostat 0.045 | vorinostat -0.069 | citarinostat -0.007 | silmitasertib -0.057 | [5] 0.075 | [6] -0.142 | entospletinib 0.109

MPST isoform 2 (UniProt P25325)
inactive: [1] -0.016 | [2] -0.066 | [3] 0.041 | [4] -0.024 | entinostat -0.011 | vorinostat -0.057 | citarinostat 0.035 | silmitasertib 0.014 | [5] 0.144 | [6] -0.009 | entospletinib -0.023

MINDY3 (UniProt Q9H8M7)
inactive: [1] -0.029 | [2] -0.135 | [3] -0.061 | [4] -0.076 | entinostat 0.018 | vorinostat 0.033 | citarinostat 0.066 | silmitasertib -0.062 | [5] -0.124 | [6] -0.048 | entospletinib -0.006

MPI (UniProt P34949)
inactive: [1] -0.018 | [2] 0.056 | [3] -0.014 | [4] -0.043 | entinostat 0.03 | vorinostat 0.059 | citarinostat 0.084 | silmitasertib 0.009 | [5] -0.077 | [6] -0.096 | entospletinib -0.225

MRPL12 (UniProt P52815)
inactive: [1] -0.05 | [2] 0.038 | [3] 0.008 | [4] -0.015 | entinostat 0.076 | vorinostat -0.044 | citarinostat -0.051 | silmitasertib -0.01 | [5] -0.071 | [6] -0.067 | entospletinib 0.06

MRPL35 (UniProt Q9NZE8)
inactive: [1] -0.035 | [2] 0.093 | [3] -0.038 | [4] 0.179 | entinostat 0.021 | vorinostat -0.011 | citarinostat 0.052 | silmitasertib 0.084 | [5] 0.015 | [6] -0.101 | entospletinib 0.072

MRPL57 (UniProt Q9BQC6)
inactive: [1] -0.006 | [2] 0.028 | [3] 0.079 | [4] 0.091 | entinostat 0.004 | vorinostat 0.005 | citarinostat -0.122 | silmitasertib -0.012 | [5] 0.071 | [6] -0.081 | entospletinib 0.107

MOGS (UniProt Q13724)
inactive: [1] -0.042 | [2] -0.023 | [3] -0.036 | [4] -0.037 | entinostat -0.003 | vorinostat 0.008 | citarinostat 0.011 | silmitasertib 0.026 | [5] 0.064 | [6] -0.052 | entospletinib -0.03

MRPL38 (UniProt Q96DV4)
inactive: [1] 0.002 | [2] 0.043 | [3] 0.004 | [4] 0.136 | entinostat -0.027 | vorinostat 0.068 | citarinostat 0.058 | silmitasertib 0.027 | [5] 0.063 | [6] -0.05 | entospletinib 0.092

MRPL42 (UniProt Q9Y6G3)
inactive: [1] -0.007 | [2] 0.074 | [3] -0.015 | [4] 0 | entinostat -0.033 | vorinostat 0.152 | citarinostat 0.065 | silmitasertib 0.01 | [5] 0 | [6] 0.02 | entospletinib -0.066

MLYCD (UniProt O95822)
inactive: [1] 0.082 | [2] -0.024 | [3] -0.041 | [4] -0.044 | entinostat -0.016 | vorinostat 0.025 | citarinostat 0.071 | silmitasertib -0.066 | [5] 0.056 | [6] 0.053 | entospletinib -0.027
